Binding data for eight molecules are collected here from doi:10.1101/2024.06.27.601040 (bioRxiv, 2024).

Protein sequences, listed by entry. Tags and fused reporters are not part of them.
UniProt Q14764: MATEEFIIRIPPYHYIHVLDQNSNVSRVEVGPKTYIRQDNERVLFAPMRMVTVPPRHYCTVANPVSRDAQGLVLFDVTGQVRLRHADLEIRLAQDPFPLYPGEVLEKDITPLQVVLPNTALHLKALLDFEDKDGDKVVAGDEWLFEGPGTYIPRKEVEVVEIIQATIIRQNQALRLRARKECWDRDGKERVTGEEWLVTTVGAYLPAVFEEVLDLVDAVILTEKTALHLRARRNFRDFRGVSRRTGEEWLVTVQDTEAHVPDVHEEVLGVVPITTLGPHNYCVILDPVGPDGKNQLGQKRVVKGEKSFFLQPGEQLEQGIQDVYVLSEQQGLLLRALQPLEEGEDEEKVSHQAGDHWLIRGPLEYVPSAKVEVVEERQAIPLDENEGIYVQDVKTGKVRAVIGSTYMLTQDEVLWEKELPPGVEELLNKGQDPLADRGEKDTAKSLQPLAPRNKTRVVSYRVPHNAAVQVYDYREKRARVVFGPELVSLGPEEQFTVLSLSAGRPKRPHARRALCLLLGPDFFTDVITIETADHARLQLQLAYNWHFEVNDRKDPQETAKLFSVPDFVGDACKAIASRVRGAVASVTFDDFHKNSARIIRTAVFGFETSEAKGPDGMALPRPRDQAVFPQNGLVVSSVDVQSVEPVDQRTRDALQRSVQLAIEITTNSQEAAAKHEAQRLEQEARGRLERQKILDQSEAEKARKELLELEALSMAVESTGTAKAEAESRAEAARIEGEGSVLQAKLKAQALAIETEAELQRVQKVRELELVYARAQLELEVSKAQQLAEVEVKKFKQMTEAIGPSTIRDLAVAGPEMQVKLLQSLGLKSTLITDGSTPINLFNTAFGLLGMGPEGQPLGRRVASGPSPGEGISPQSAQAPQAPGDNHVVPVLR

These are yes or no findings as the source states them, for the method shown. Binding seen in cells or lysates may run through a third protein. Here binding means that the protein was enriched with, or labelled near, the bait; the list need not be complete.

The chains are these.
B1: TRO (protein, UniProt Q12816 1-1431)
chain: MDRRNDYGYRVPLFQGPLPPPGSLGLPFPPDIQTETTEEDSVLLMHTLLAATKDSLAMDPPVVNRPKKSKTKKAPIKTITKAAPAAPPVPAANEIATNKPKITWQALNLPVITQISQALPTTEVTNTQASSVTAQPKKANKMKRVTAKAAQGSQSPTGHEGGTIQLKSPLQVLKLPVISQNIHAPIANESASSQALITSIKPKKASKAKKAANKAIASATEVSLAATATHTATTQGQITNETASIHTTAASIRTKKASKARKTIAKVINTDTEHIEALNVTDAATRQIEASVVAIRPKKSKGKKAASRGPNSVSEISEAPLATQIVTNQALAATLRVKRGSRARKAATKARATESQTPNADQGAQAKIASAQTNVSALETQVAAAVQALADDYLAQLSLEPTTRTRGKRNRKSKHLNGDERSGSNYRRIPWGRRPAPPRDVAILQERANKLVKYLLVKDQTKIPIKRSDMLRDVIQEYDEYFPEIIERASYTLEKMFRVNLKEIDKQSSLYILISTQESSAGILGTTKDTPKLGLLMVILSVIFMNGNKASEAVIWEVLRKLGLRPGVRHSLFGEVRKLITDEFVKQKYLEYKRVPNSRPPEYEFFWGLRSYHETSKMKVLKFACRVQKKDPKDWAVQYREAVEMEVQAAAVAVAEAEARAEARAQMGIGEEAVAGPWNWDDMDIDCLTREELGDDAQAWSRFSFEIEARAQENADASTNVNFSRGASTRAGFSDGASISFNGAPSSSGGFSGGPGITFGVAPSTSASFSNTASISFGGTLSTSSSFSSAASISFGCAHSTSTSFSSEASISFGGMPCTSASFSGGVSSSFSGPLSTSATFSGGASSGFGGTLSTTAGFSGVLSTSTSFGSAPTTSTVFSSALSTSTGFGGILSTSVCFGGSPSSSGSFGGTLSTSICFGGSPCTSTGFGGTLSTSVSFGGSSSTSANFGGTLSTSICFDGSPSTGAGFGGALNTSASFGSVLNTSTGFGGAMSTSADFGGTLSTSVCFGGSPGTSVSFGSALNTNAGYGGAVSTNTDFGGTLSTSVCFGGSPSTSAGFGGALNTNASFGCAVSTSASFSGAVSTSACFSGAPITNPGFGGAFSTSAGFGGALSTAADFGGTPSNSIGFGAAPSTSVSFGGAHGTSLCFGGAPSTSLCFGSASNTNLCFGGPPSTSACFSGATSPSFCDGPSTSTGFSFGNGLSTNAGFGGGLNTSAGFGGGLGTSAGFSGGLSTSSGFDGGLGTSAGFGGGPGTSTGFGGGLGTSAGFSGGLGTSAGFGGGLVTSDGFGGGLGTNASFGSTLGTSAGFSGGLSTSDGFGSRPNASFDRGLSTIIGFGSGSNTSTGFTGEPSTSTGFSSGPSSIVGFSGGPSTGVGFCSGPSTSGFSGGPSTGAGFGGGPNTGAGFGGGPSTSAGFGSGAASLGACGFSYG
B2: AKR1C3 (enzyme, UniProt P42330 1-323)
chain: MDSKHQCVKLNDGHFMPVLGFGTYAPPEVPRSKALEVTKLAIEAGFRHIDSAHLYNNEEQVGLAIRSKIADGSVKREDIFYTSKLWSTFHRPELVRPALENSLKKAQLDYVDLYLIHSPMSLKPGEELSPTDENGKVIFDIVDLCTTWEAMEKCKDAGLAKSIGVSNFNRRQLEMILNKPGLKYKPVCNQVECHPYFNRSKLLDFCKSKDIVLVAYSALGSQRDKRWVDPNSPVLLEDPVLCALAKKHKRTPALIALRYQLQRGVVVLAKSYNEQRIRQNVQVFEFQLTAEDMKAIDGLDRNLHYFNSDSFASHPNYPYSDEY
B3: DAZAP1 (protein, UniProt Q96EP5 1-407)
chain: MNNSGADEIGKLFVGGLDWSTTQETLRSYFSQYGEVVDCVIMKDKTTNQSRGFGFVKFKDPNCVGTVLASRPHTLDGRNIDPKPCTPRGMQPERTRPKEGWQKGPRSDNSKSNKIFVGGIPHNCGETELREYFKKFGVVTEVVMIYDAEKQRPRGFGFITFEDEQSVDQAVNMHFHDIMGKKVEVKRAEPRDSKSQAPGQPGASQWGSRVVPNAANGWAGQPPPTWQQGYGPQGMWVPAGQAIGGYGPPPAGRGAPPPPPPFTSYIVSTPPGGFPPPQGFPQGYGAPPQFSFGYGPPPPPPDQFAPPGVPPPPATPGAAPLAFPPPPSQAAPDMSKPPTAQPDFPYGQYAGYGQDLSGFGQGFSDPSQQPPSYGGPSVPGSGGPPAGGSGFGRGQNHNVQGFHPYRR
B4: WDR11 (protein, UniProt Q9BZH6 1-1224)
chain: MLPYTVNFKVSARTLTGALNAHNKAAVDWGWQGLIAYGCHSLVVVIDSITAQTLQVLEKHKADVVKVKWARENYHHNIGSPYCLRLASADVNGKIIVWDVAAGVAQCEIQEHAKPIQDVQWLWNQDASRDLLLAIHPPNYIVLWNADTGTKLWKKSYADNILSFSFDPFDPSHLTLLTSEGIVFISDFSPSKPPSGPGKKVYISSPHSSPAHNKLATATGAKKALNKVKILITQEKPSAEFITLNDCLQLAYLPSKRNHMLLLYPREILILDLEVNQTVGVIAIERTGVPFLQVIPCFQRDGLFCLHENGCITLRVRRSYNNIFTTSNEEPDPDPVQELTYDLRSQCDAIRVTKTVRPFSMVCCPVNENAAALVVSDGRVMIWELKSAVCNRNSRNSSSGVSPLYSPVSFCGIPVGVLQNKLPDLSLDNMIGQSAIAGEEHPRGSILREVHLKFLLTGLLSGLPAPQFAIRMCPPLTTKNIKMYQPLLAVGTSNGSVLVYHLTSGLLHKELSIHSCEVKGIEWTSLTSFLSFATSTPNNMGLVRNELQLVDLPTGRSIAFRGERGNDESAIEMIKVSHLKQYLAVVFRDKPLELWDVRTCTLLREMSKNFPTITALEWSPSHNLKSLRKKQLATREAMARQTVVSDTELSIVESSVISLLQEAESKSELSQNISAREHFVFTDIDGQVYHLTVEGNSVKDSARIPPDGSMGSITCIAWKGDTLVLGDMDGNLNFWDLKGRVSRGIPTHRSWVRKIRFAPGKGNQKLIAMYNDGAEVWDTKEVQMVSSLRSGRNVTFRILDVDWCTSDKVILASDDGCIRVLEMSMKSACFRMDEQELTEPVWCPYLLVPRASLALKAFLLHQPWNGQYSLDISHVDYPENEEIKNLLQEQLNSLSNDIKKLLLDPEFTLLQRCLLVSRLYGDESELHFWTVAAHYLHSLSQEKSASTTAPKEAAPRDKLSNPLDICYDVLCENAYFQKFQLERVNLQEVKRSTYDHTRKCTDQLLLLGQTDRAVQLLLETSADNQHYYCDSLKACLVTTVTSSGPSQSTIKLVATNMIANGKLAEGVQLLCLIDKAADACRYLQTYGEWNRAAWLAKVRLNPEECADVLRRWVDHLCSPQVNQKSKALLVLLSLGCFFSVAETLHSMRYFDRAALFVEACLKYGAFEVTEDTEKLITAIYADYARSLKNLGFKQGAVLFASKAGAAGKDLLNELESPKEEPIEE
B5: HNRNPDL (protein, UniProt O14979 1-420)
chain: MEVPPRLSHVPPPLFPSAPATLASRSLSHWRPRPPRQLAPLLPSLAPSSARQGARRAQRHVTAQQPSRLAGGAAIKGGRRRRPDLFRRHFKSSSIQRSAAAAAATRTARQHPPADSSVTMEDMNEYSNIEEFAEGSKINASKNQQDDGKMFIGGLSWDTSKKDLTEYLSRFGEVVDCTIKTDPVTGRSRGFGFVLFKDAASVDKVLELKEHKLDGKLIDPKRAKALKGKEPPKKVFVGGLSPDTSEEQIKEYFGAFGEIENIELPMDTKTNERRGFCFITYTDEEPVKKLLESRYHQIGSGKCEIKVAQPKEVYRQQQQQQKGGRGAAAGGRGGTRGRGRGQGQNWNQGFNNYYDQGYGNYNSAYGGDQNYSGYGGYDYTGYNYGNYGYGQGYADYSGQQSTYGKASRGGGNHQNNYQPY
B6: DARS2 (enzyme, UniProt Q6PI48 48-645)
chain: VVRTNTCGELRSSHLGQEVTLCGWIQYRRQNTFLVLRDFDGLVQVIIPQDESAASVKKILCEAPVESVVQVSGTVISRPAGQENPKMPTGEIEIKVKTAELLNACKKLPFEIKNFVKKTEALRLQYRYLDLRSFQMQYNLRLRSQMVMKMREYLCNLHGFVDIETPTLFKRTPGGAKEFLVPSREPGKFYSLPQSPQQFKQLLMVGGLDRYFQVARCYRDEGSRPDRQPEFTQIDIEMSFVDQTGIQSLIEGLLQYSWPNDKDPVVVPFPTMTFAEVLATYGTDKPDTRFGMKIIDISDVFRNTEIGFLQDALSKPHGTVKAICIPEGAKYLKRKDIESIRNFAADHFNQEILPVFLNANRNWNSPVANFIMESQRLELIRLMETQEEDVVLLTAGEHNKACSLLGKLRLECADLLETRGVVLRDPTLFSFLWVVDFPLFLPKEENPRELESAHHPFTAPHPSDIHLLYTEPKKARSQHYDLVLNGNEIGGGSIRIHNAELQRYILATLLKEDVKMLSHLLQALDYGAPPHGGIALGLDRLICLVTGSPSIRDVIAFPKSFRGHDLMSNTPDSVPPEELKPYHIRVSKPTDSKAERAH
B7: TCAF1 (protein, UniProt Q9Y4C2 1-921)
chain: MATPSAAFEALMNGVTSWDVPEDAVPCELLLIGEASFPVMVNDMGQVLIAASSYGRGRLVVVSHEDYLVEAQLTPFLLNAVGWLCSSPGAPIGVHPSLAPLAKILEGSGVDAKVEPEVKDSLGVYCIDAYNETMTEKLVKFMKCGGGLLIGGQAWDWANQGEDERVLFTFPGNLVTSVAGIYFTDNKGDTSFFKVSKKMPKIPVLVSCEDDLSDDREELLHGISELDISNSDCFPSQLLVHGALAFPLGLDSYHGCVIAAARYGRGRVVVTGHKVLFTVGKLGPFLLNAVRWLDGGRRGKVVVQTELRTLSGLLAVGGIDTSIEPNLTSDASVYCFEPVSEVGVKELQEFVAEGGGLFVGAQAWWWAFKNPGVSPLARFPGNLLLNPFGISITSQSLNPGPFRTPKAGIRTYHFRSTLAEFQVIMGRKRGNVEKGWLAKLGPDGAAFLQIPAEEIPAYMSVHRLLRKLLSRYRLPVATRENPVINDCCRGAMLSLATGLAHSGSDLSLLVPEIEDMYSSPYLRPSESPITVEVNCTNPGTRYCWMSTGLYIPGRQIIEVSLPEAAASADLKIQIGCHTDDLTRASKLFRGPLVINRCCLDKPTKSITCLWGGLLYIIVPQNSKLGSVPVTVKGAVHAPYYKLGETTLEEWKRRIQENPGPWGELATDNIILTVPTANLRTLENPEPLLRLWDEVMQAVARLGAEPFPLRLPQRIVADVQISVGWMHAGYPIMCHLESVQELINEKLIRTKGLWGPVHELGRNQQRQEWEFPPHTTEATCNLWCVYVHETVLGIPRSRANIALWPPVREKRVRIYLSKGPNVKNWNAWTALETYLQLQEAFGWEPFIRLFTEYRNQTNLPTENVDKMNLWVKMFSHQVQKNLAPFFEAWAWPIQKEVATSLAYLPEWKENIMKLYLLTQMPH
B8: ALDH1A1 (enzyme, UniProt P00352 1-501)
chain: MSSSGTPDLPVLLTDLKIQYTKIFINNEWHDSVSGKKFPVFNPATEEELCQVEEGDKEDVDKAVKAARQAFQIGSPWRTMDASERGRLLYKLADLIERDRLLLATMESMNGGKLYSNAYLNDLAGCIKTLRYCAGWADKIQGRTIPIDGNFFTYTRHEPIGVCGQIIPWNFPLVMLIWKIGPALSCGNTVVVKPAEQTPLTALHVASLIKEAGFPPGVVNIVPGYGPTAGAAISSHMDIDKVAFTGSTEVGKLIKEAAGKSNLKRVTLELGGKSPCIVLADADLDNAVEFAHHGVFYHQGQCCIAASRIFVEESIYDEFVRRSVERAKKYILGNPLTPGVTQGPQIDKEQYDKILDLIESGKKEGAKLECGGGPWGNKGYFVQPTVFSNVTDEMRIAKEEIFGPVQQIMKFKSLDDVIKRANNTFYGLSAGVFTKDIDKAITISSALQAGTVWVNCYGVVSAQCPFGGFKMSGNGRELGEYGFHEYTEVKTVTVKISQKNS

The assay concerns the target endogenous MVP (native vault) of A549 cells (human (endogenous in A549)) (UniProt Q14764). In words: affinity purification with mass spectrometry.
With B1, the binding entry is recorded as “binds”.
The value for B2 was “binds”.
For B3, the binding result is reported as “binds”.
In the case of B4, the binding entry is “binds”.
For B5, the binding result was “binds”.
In the case of B6, the binding entry is “binds”.
The value for B7 was “binds”; that for B8 was “binds”.
